Percent effect of library compounds

The values are deposited in ChEMBL (CHEMBL3988442, “University of Dundee, Small-Polar-MMV Screening Library” (2021)).

Each number is a percent effect as filed. The record does not define 0% and 100%; most values in the screen are far below 50% and negative numbers occur (in some assays of this library far below -100). This is an unselected part of the compounds tested. Two or more numbers in one place are separate tests of the same structure; such repeats can differ widely.

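Cell assay of Leishmania donovani living inside macrophages; the read-out is not stated. Tested at 30 µM. Higher reads as stronger inhibition (inferred: compounds with an IC50 in retests scored well above the rest). Of about 69,000 compounds tested this way, about 1,000 (1.5%) reached 50% or more in at least one test.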

Compound	percent effect
CCn1c(C2CCCN(Cc3ccc4ccccc4n3)C2)nn(C)c1=O (stereo not given)	-2.424%
O=C(N[C@@H]1CCNC[C@H]1O)c1ccccc1OC(F)(F)C(F)F	21.52%
N#Cc1ccccc1NC(=O)c1ccc2c(c1)OCO2	9.576%
CS(=O)(=O)NC[C@H]1OC[C@@H](NC2CCC(F)(F)CC2)[C@@H]1O	23.98%
O=C(c1ccc(S(=O)(=O)N2CCSCC2)cc1)N1CCC(O)C1 (stereo not given)	5.712%
COc1cccc(N2CC3(CCN(c4cnccn4)C3)CC2=O)c1 (stereo not given)	4.835% & 10.55%
CCn1cc(NC(=O)Nc2ccc3c(c2)OCCO3)cn1	-10.82%
COc1ccc(CNC(Cn2cncn2)c2ccccc2)cc1O (stereo not given)	3.359%
Cc1nc(C2CCCN2C(=O)Cc2cccc(F)c2)nc(O)c1C (stereo not given)	3.708% & 19.69%
Cc1nc(N)cc(C2CN(C(=O)c3cscn3)CCO2)n1 (stereo not given)	-4.373%
COCCNC(=O)C1(c2ccccc2C)CCOCC1	2.432%
CC(=O)c1c(F)cccc1N1CCC(C(N)=O)CC1	15.8%
Cc1nn(C)c(C)c1NC(=O)CN1CCOC(CN(C)C)C1 (stereo not given)	51.92%
CN(C)C(=O)c1cccc(NC(=O)Cc2cc(F)ccc2F)n1	15.56%
CCC(C)(CC(=O)OC)NCc1cc(C)on1 (stereo not given)	15.13%
O=C1CCCC2=C1C(c1cccc(F)c1F)Nc1nonc1N2 (stereo not given)	4.816%
Cc1nc(CNC(=O)Nc2cc(F)ccc2N2CCN(C)CC2)no1	13.43%
O=C(CC1CC1)N1Cc2nccn2CC(CN2CCCC2)C1 (stereo not given)	-6.442%
Cc1ccc(CNC(=O)N(C)Cc2ccc([S+](C)[O-])cc2)s1 (stereo not given)	-14.84%
Cc1nc(C)n(CC2CCCN2Cc2coc(-c3cccs3)n2)n1 (stereo not given)	30.72%
O=C(c1ccnnc1)N1CCn2cc(CN3CCCCC3)nc2C1	31.07%
Cc1ccc2cc(C(=O)N3CCCCC3c3nc[nH]n3)ccc2n1 (stereo not given)	3.198%
COCC1CN(Cc2ccc(F)cc2)Cc2nn(C)cc21.O=C(O)C(F)(F)F (stereo not given)	15.86%
Cn1ncc2c1NC(=O)CC2c1ccccc1Cl (stereo not given)	-12.41%
CC(=O)N1CCC2(CC1)COCCN2CCN(C)C.O=C(O)C(F)(F)F.O=C(O)C(F)(F)F	-1.807%
CCC(C)NC(=O)c1ccc(CNC(=O)COC)cc1 (stereo not given)	22.96%
CN(C)[C@@H]1CCN(C(=O)c2ccccn2)[C@H]1Cc1cnn(C)c1	-15.68%
CCOc1c(Br)cc(C2C3=C(COC3=O)Nc3[nH]nc(C)c32)cc1OC (stereo not given)	18.93%
CC(C)(C)OC(=O)N1CCC(NCc2cnn(C(C)(C)C)c2)CC1	7.089%
O=C(NCC[S+]([O-])c1ccccc1)NCC(F)(F)F (stereo not given)	13.31%
O=C(CCc1ccc(F)cc1)NS(=O)(=O)c1ccc2c(c1)OCCCO2	-59.46%
Cn1cnnc1C1CCCN(C(=O)c2cc(Cl)c3c(c2)OCO3)C1 (stereo not given)	10.19%
COc1ccc(CNC2(Cc3cc(CC(C)C)on3)COC2)cc1	-18.88%
Cc1cnccc1NCCn1ccnc1C1CCOC1 (stereo not given)	15.38%
Cn1cc(C(=O)N2CCSc3ccccc32)ccc1=O	10.29%
O=C(O)C(=O)O.c1cnc(-c2noc(C3CN(Cc4ccc5c(c4)CCO5)C3)n2)cn1	21.27% & 8.864%
O=C(O)C(F)(F)F.[H][C@@]12CCN(C3CCOC3)[C@@]1([H])CC(=O)N2Cc1csc(C)n1 (stereo not given in full)	-15.11%
CN(C)Cc1ccnc(C2CCCN2Cc2ccc3ncccc3c2)n1 (stereo not given)	23.34% & 1.719%
Cc1cc(C)nc(NCCCC(=O)NCCn2ccc3ccccc32)n1	-1.442%
CCn1c(CC2CCNCC2)nn(Cc2ccc(C(=O)NC)o2)c1=O	7.521%
Cc1n[nH]cc1CNC(=O)CCCc1cccs1	-9.913%
CC(C)CCn1ccc(NC2CCSC2)n1 (stereo not given)	1.529%
COc1cc(N2CC[C@@H](O)[C@@H]2Cc2cccnc2)ncn1.O=C(O)C(F)(F)F	30.26%
CSc1ccc(CN2CCn3nc(CNC(C)=O)cc3C2)cc1	-44.46%
CC(=O)N1CCC(c2c(CN(C)C)cnc3cc(C)nn23)CC1	27.83%
CN(C)c1ccc(C(=O)N(CCO)CC2CC2)c(F)c1	-2.602%
CNS(=O)(=O)c1csc(C(=O)N(C)Cc2ccccc2C)c1	-31.44%
Cn1c(CO)nnc1CC1CCN(Cc2ccc(C#N)cc2)CC1	-5.765%
NC(=O)C(NCc1ccc(Cl)s1)c1ccccc1 (stereo not given)	22.99%
NC(=O)C1CCN(c2ccc(C(=O)N3CCc4ccccc43)cn2)C1 (stereo not given)	21.66%
C/C=C(/C)C(=O)NS(=O)(=O)c1ccc(Cl)cn1	3.192%

Repeated from the top, 4 entries:

CCn1c(C2CCCN(Cc3ccc4ccccc4n3)C2)nn(C)c1=O (stereo not given) gave -2.424%.
O=C(N[C@@H]1CCNC[C@H]1O)c1ccccc1OC(F)(F)C(F)F gave 21.52%.
N#Cc1ccccc1NC(=O)c1ccc2c(c1)OCO2 gave 9.576%.
CS(=O)(=O)NC[C@H]1OC[C@@H](NC2CCC(F)(F)CC2)[C@@H]1O gave 23.98%.